Results published in article doi:10.1101/2022.03.02.482654.

Amino acid sequences for entries named in this document (tags omitted). A change or cut given only in a name is not applied to a line headed by its entry.
UniProt F4IHY7: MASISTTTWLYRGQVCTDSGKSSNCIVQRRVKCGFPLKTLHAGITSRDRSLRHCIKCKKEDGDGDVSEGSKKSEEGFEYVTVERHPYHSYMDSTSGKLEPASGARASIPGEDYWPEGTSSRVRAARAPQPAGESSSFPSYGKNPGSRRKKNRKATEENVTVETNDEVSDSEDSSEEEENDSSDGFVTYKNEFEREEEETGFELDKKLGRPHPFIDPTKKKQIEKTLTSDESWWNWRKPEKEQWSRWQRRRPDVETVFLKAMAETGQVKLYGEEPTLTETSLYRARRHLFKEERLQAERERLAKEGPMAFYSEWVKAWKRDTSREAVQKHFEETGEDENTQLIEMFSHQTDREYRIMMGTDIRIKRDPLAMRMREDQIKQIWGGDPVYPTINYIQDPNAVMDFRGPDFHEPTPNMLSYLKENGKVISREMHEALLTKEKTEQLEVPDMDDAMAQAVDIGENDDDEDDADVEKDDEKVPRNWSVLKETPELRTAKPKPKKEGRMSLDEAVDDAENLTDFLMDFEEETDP
UniProt Q9SR02: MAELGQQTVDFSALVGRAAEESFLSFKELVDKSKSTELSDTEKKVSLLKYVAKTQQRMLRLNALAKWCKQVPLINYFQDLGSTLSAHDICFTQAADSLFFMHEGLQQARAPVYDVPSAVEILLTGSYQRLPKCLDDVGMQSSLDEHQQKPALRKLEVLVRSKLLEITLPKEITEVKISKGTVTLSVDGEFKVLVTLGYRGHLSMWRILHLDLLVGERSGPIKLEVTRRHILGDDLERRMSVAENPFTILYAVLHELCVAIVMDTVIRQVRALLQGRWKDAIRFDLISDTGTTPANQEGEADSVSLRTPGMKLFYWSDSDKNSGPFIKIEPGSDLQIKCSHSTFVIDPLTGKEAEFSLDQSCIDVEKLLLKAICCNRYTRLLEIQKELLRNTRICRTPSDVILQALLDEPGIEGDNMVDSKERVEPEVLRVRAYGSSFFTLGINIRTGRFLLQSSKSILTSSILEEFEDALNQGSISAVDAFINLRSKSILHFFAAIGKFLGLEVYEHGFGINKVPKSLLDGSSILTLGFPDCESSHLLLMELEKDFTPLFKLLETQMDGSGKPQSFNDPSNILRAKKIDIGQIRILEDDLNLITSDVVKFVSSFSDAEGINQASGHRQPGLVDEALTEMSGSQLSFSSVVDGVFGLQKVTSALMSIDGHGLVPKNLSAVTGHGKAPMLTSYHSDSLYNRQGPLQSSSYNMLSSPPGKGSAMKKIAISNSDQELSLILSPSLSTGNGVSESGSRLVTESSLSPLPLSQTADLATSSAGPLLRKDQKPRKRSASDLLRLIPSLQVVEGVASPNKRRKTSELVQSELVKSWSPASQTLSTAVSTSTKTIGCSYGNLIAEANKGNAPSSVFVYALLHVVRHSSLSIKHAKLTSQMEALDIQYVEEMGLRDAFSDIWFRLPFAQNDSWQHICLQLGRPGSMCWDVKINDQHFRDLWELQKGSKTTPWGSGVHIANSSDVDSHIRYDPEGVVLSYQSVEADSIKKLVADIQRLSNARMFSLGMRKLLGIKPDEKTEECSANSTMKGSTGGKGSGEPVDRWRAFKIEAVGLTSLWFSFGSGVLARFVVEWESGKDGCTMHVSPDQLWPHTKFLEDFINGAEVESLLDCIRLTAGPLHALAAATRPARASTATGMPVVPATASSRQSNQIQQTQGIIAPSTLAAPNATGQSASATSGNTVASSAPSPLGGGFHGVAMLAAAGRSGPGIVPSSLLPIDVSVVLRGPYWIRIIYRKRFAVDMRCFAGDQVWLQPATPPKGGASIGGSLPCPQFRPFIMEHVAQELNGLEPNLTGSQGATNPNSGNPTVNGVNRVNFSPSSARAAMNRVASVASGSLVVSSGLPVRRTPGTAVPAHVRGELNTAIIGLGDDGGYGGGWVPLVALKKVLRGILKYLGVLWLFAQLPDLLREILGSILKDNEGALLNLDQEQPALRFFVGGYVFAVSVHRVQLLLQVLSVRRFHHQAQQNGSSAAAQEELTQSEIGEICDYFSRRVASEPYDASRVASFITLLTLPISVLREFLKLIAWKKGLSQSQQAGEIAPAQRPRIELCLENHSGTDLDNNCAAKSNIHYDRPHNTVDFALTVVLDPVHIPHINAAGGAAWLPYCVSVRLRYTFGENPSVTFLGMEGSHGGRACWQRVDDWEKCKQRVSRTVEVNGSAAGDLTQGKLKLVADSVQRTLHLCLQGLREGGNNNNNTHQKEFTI

Biological target: GST-HMR (HEMERA) (Arabidopsis thaliana) (UniProt F4IHY7)
Assay: pull-down

binding: binds
Substance: HA-MED14 (from UniProt Q9SR02 1-1703)

These are yes or no findings as the source states them, for the method shown. In cells and extracts the contact can be indirect. A result given as binding can be weak or reduced; the word gives no strength.
